## Cleaved PARP after 72 h of treatment

From a melanoma drug combination screen (doi:10.1371/journal.pone.0140310); values rounded.

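Human melanoma cell lines in 1,536-well plates were treated with a pair of drugs for 72 h, then fixed, stained and imaged. Each value is the cleaved-PARP-positive fraction of nuclei relative to DMSO-treated wells, in %, so that 100 equals the control and higher values mean more apoptosis. Every drug was used at one fixed concentration, the higher of two screened. These are primary screening values without error estimates. Basal and induced levels differ widely between cell lines.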
An unselected part of the screen is shown.
A dash means that no value is listed here.

Drug key:
IMD-0354 (0.08 µM): O=C(Nc1cc(C(F)(F)F)cc(C(F)(F)F)c1)c1cc(Cl)ccc1O
YM155 (0.002 µM): COCC[n+]1c2c(n(Cc3cnccn3)c1C)C(=O)c1ccccc1C2=O
NVP-BEZ235 (0.02 µM): Cn1c(=O)n(-c2ccc(C(C)(C)C#N)cc2)c2c3cc(-c4cnc5ccccc5c4)ccc3ncc21
fludarabine (1 µM): Nc1nc(F)nc2c1ncn2[C@@H]1O[C@H](CO)[C@@H](O)[C@@H]1O
decitabine (0.5 µM): Nc1ncn([C@H]2C[C@H](O)[C@@H](CO)O2)c(=O)n1
perifosine (2 µM): CCCCCCCCCCCCCCCCCCOP(=O)([O-])OC1CC[N+](C)(C)CC1
XAV939 (10 µM): Oc1nc(-c2ccc(C(F)(F)F)cc2)nc2c1CSCC2

Combination	MeWo	WM1745	UACC-62	IPC-298	C32	RPMI-7951	UACC-257	LOX IMVI	SK-MEL-28	WM1716	SK-MEL-5	LB2518-MEL	COLO 800	MEL-HO
XAV939 + fludarabine	57.4	-	303	239	172	67.7	2800	36.9	1320	94.1	4920	-	86.8	199
perifosine + fludarabine	142	101	90.1	79.2	95.6	334	4190	52.3	1400	34.7	1970	68.2	338	107
XAV939 + NVP-BEZ235	96.7	-	257	236	83.0	161	37.1	129	86.6	782	111	58.2	485	111
perifosine + NVP-BEZ235	111	118	176	131	141	550	78.7	82.3	61.0	57.9	221	-	45.0	50.7
decitabine + YM155	602	103	272	195	42.1	538	1130	150	282	77.6	2940	480	242	103
perifosine + YM155	151	99.4	193	74.4	194	552	1850	136	184	166	1030	190	151	39.8
YM155 + NVP-BEZ235	123	126	244	214	117	113	1050	217	347	81.1	912	287	102	65.0
decitabine + XAV939	203	-	341	72.7	95.4	253	162	66.9	127	56.0	267	81.0	164	192
fludarabine + NVP-BEZ235	124	126	223	74.7	207	159	4740	65.0	1900	54.7	3500	81.0	112	87.7
XAV939 + YM155	112	137	210	120	88.6	185	515	151	1390	147	250	58.4	518	56.2
YM155 + IMD-0354	106	81.9	181	118	167	79.5	1300	113	1080	26.5	435	450	188	125
NVP-BEZ235 + IMD-0354	33.9	118	239	56.3	91.1	128	84.4	128	94.7	119	62.7	153	129	106
perifosine + IMD-0354	114	93.3	116	165	83.8	528	54.7	82.6	92.7	162	69.1	72.5	74.3	44.1
decitabine + fludarabine	242	128	255	168	226	122	4800	45.3	794	158	5470	86.9	121	125
IMD-0354 + XAV939	81.8	-	335	108	73.7	53.3	33.1	121	56.5	260	341	111	87.5	144
perifosine + XAV939	69.9	-	188	88.2	89.2	186	91.4	215	86.0	143	131	124	167	80.7
YM155 + fludarabine	314	98.0	199	189	100	320	3940	157	1320	323	5400	746	404	365
fludarabine + IMD-0354	110	90.7	122	113	130	117	4330	107	2790	113	1950	23.4	195	67.1
decitabine + IMD-0354	61.2	116	165	422	65.8	154	31.1	113	51.0	50.9	118	-	75.9	231
decitabine + perifosine	119	111	232	154	110	110	134	116	97.5	158	158	95.8	87.9	298
decitabine + NVP-BEZ235	144	127	369	39.8	165	83.6	76.4	329	158	70.0	250	109	88.9	175